Measurements reported in patent US20070098804A1, “Solid particulate tadalafil having a bimodal particle size distribution” (priority 2005, published 2007).
For at least one compound, name, drawing or mass did not settle the structure.

Assay: Particle size distribution by laser diffraction (Malvern Mastersizer S)
Type: physicochemical
[1] = volume PSD of the bimodal product, laser diffraction, dispersed in F-10 silicone fluid
[2] = starting material used in the examples

Row | Compound | d(0.1) [1] | d(0.5) [1] | d(0.9) [1] | d(0.1) [2] [μ] | d(0.9) [2] [μ] | maximum particle size [2] | particles having d<45μ [2]
1 | CN1CC(=O)N2[C@H](c3ccc4c(c3)OCO4)c3[nH]c4ccccc4c3C[C@@H]2C1=O [Example 1, tadalafil] | 1.3-1.5 μm | 5-8 μm | 47-61 μm |  |  |  | 
2 | CN1CC(=O)N2[C@H](c3ccc4c(c3)OCO4)c3[nH]c4ccccc4c3C[C@@H]2C1=O [Example 2, tadalafil] | 1.3-1.5 μm | 5-9 μm | 60-65 μm |  |  |  | 
3 | CN1CC(=O)N2[C@H](c3ccc4c(c3)OCO4)c3[nH]c4ccccc4c3C[C@@H]2C1=O [Example 3, tadalafil] | 1.5-1.8 μm | 10-15 μm | 60-80 μm |  |  |  | 
4 | CN1CC(=O)N2[C@H](c3ccc4c(c3)OCO4)c3[nH]c4ccccc4c3C[C@@H]2C1=O [tadalafil] |  |  |  | ~10 | ~120 | about 15 μ | ca. 53%
